The other results are listed elsewhere or left out. Shown are side measurements of this screen, not its main read-out; they come without a call. The list favours compounds with an active or inconclusive main result. Potencies come from curve fits of mixed quality, noted in brackets.
Assay: qHTS Assay to Find Inhibitors of Chronic Active B-Cell Receptor Signaling
Conditions: ABC-DLBCL IkBa-CBG/CBR reporter, luminescence ratio (green luciferase fused to IkBa over red control in TMD8 lymphoma cells), 4 h
Method in brief: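 Compounds up to 46 uM were incubated four hours with TMD8 cells whose green CBG68 luciferase is fused to IkappaBalpha; red CBR luminescence normalised the signal, and concentration-effect curves were fitted to fusion, red and ratio data.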

[1] = measured here: CBR red luminescence, cell number
[2] = measured here: IkBa-CBG green luminescence

Compound: CCN(CC)c1ccc(CNc2ccc(Br)cn2)cc1
- AC50 [1]: 29.1 µM [rising, single point]
- AC50 [2]: 1.03 µM [rising, full curve, poor fit]

Compound: Cc1cc(CNC(=O)Cc2ccc(F)cc2)c2ccccc2n1
- AC50 [2]: 35.5 µM [falling, partial curve, poor fit]

Compound: CCN1/C(=C2\C(=O)N(c3ccccc3)N=C2C)C=Cc2cc(C)ccc21
- AC50 [1]: 18.4 µM [rising, partial curve, poor fit]

Compound: Cc1nn(CC(=O)NC(C)c2ccccc2)c(=O)c2ccccc12 (centres undefined)
- AC50 [1]: 0.116 µM [falling, full curve, poor fit]

Compound: O=C(CCS(=O)(=O)c1ccccc1)Nc1cccc(-c2nc3ccccc3s2)c1
- AC50 [1]: 29.1 µM [falling, single point]
- AC50 [2]: 29.1 µM [rising, partial curve, poor fit]

Compound: CC[C@@H]1C=C(C(=O)O)[C@H](c2ccc3c(c2)OCO3)N1S(=O)(=O)c1ccc(C)cc1
- AC50 [1]: 25.9 µM [falling, single point]

Compound: CC(=O)c1ccc(OCCOc2ccc([N+](=O)[O-])cc2)cc1
- AC50 [1]: 25.1 µM [rising, partial curve, poor fit]

Compound: Cc1cc(N)c2ccccc2n1
- AC50 [1]: 28.2 µM [falling, single point]

Compound: O=C(/C=C/c1ccco1)Oc1cccc2cccnc12
- AC50 [1]: 35.5 µM [rising, single point]
- AC50 [2]: 35.5 µM [falling, single point]

Compound: C/C(CC(=O)Nc1ccc(Br)cc1)=N\NC(=O)c1cccc(O)c1
- AC50 [1]: 1 µM [falling, full curve]

Compound: Cc1cc(NC(=O)c2c(F)cccc2F)n(-c2nc3ccccc3[nH]2)n1
- AC50 [1]: 0.631 µM [falling, full curve, poor fit]

Compound: CC(=O)Nc1ccc(S(=O)(=O)N(C)CC(=O)OCC(=O)Nc2cccnc2Cl)cc1
- AC50 [1]: 4.11 µM [rising, full curve, poor fit]

Compound: Clc1cccc(-c2sc(Nc3ccccc3)n[n+]2-c2ccccc2)c1Cl
- AC50 [1]: 11.2 µM [falling, single point]

Compound: O=C(CSc1nc2ccccc2[nH]1)Nc1c(F)cccc1F
- AC50 [1]: 3.98 µM [falling, partial curve]

Compound: COc1cc(NC(=S)NCCN2CCOCC2)cc(OC)c1
- AC50 [1]: 2.06 µM [rising, full curve, poor fit]

Compound: CCCC(=O)Nc1nc2ccc(C(=O)OCC)cc2s1
- AC50 [1]: 20.6 µM [falling, partial curve]

Compound: O=C(N/N=C/C=C/c1ccccc1)NC1CCCCC1
- AC50 [1]: 31.6 µM [falling, single point]

Compound: CCOC(=O)c1c(C)n(C)c2ccc(OCC(O)Cn3nc(C)c(Br)c3C)cc12 (centres undefined)
- AC50 [1]: 16.4 µM [falling, partial curve, poor fit]
- AC50 [2]: 25.9 µM [rising, partial curve, poor fit]

Compound: C=CCNc1sc(C(=O)c2ccccc2)c(N)c1-c1nc2ccccc2s1
- AC50 [1]: 22.4 µM [falling, single point]

Compound: O=C1NC(=S)S/C1=C\c1ccc(SCc2ccccc2)o1
- AC50 [1]: 18.4 µM [rising, single point]

Compound: CCCCCc1cc(O)c2c(C)cc(=O)oc2c1
- AC50 [1]: 1.46 µM [rising, partial curve]

Compound: S=C(Nc1ccc2cn[nH]c2c1)Nc1ccccc1Cl
- AC50 [1]: 29.1 µM [falling, single point]

Compound: COc1ccc(NS(=O)(=O)c2cccc(C(=O)N/N=C/c3ccccc3OC)c2)cc1
- AC50 [1]: 11.6 µM [falling, partial curve, poor fit]

Compound: Cc1cc(O)cc(O)c1-c1onc(C(F)(F)F)c1-c1cscn1
- AC50 [1]: 35.5 µM [falling, single point]

Compound: CCCN1CCN(CCCNC(=O)c2cc3c(s2)-c2ccccc2OC3)CC1
- AC50 [1]: 22.4 µM [falling, single point]

Compound: COc1ccc2nc(NC(=O)CN(C)S(=O)(=O)c3cccs3)sc2c1
- AC50 [1]: 10.3 µM [falling, partial curve]

Compound: COc1ccc(NC(=O)Nc2cc(F)ccc2C)cc1
- AC50 [1]: 14.1 µM [falling, single point]

Compound: CC(C)C1Nc2ccc(C(=O)O)cc2C2C=CCC21 (centres undefined)
- AC50 [1]: 35.5 µM [falling, single point]

Compound: c1ccc(Nc2cccc(Nc3ccccc3)c2)cc1
- AC50 [1]: 0.326 µM [rising, full curve, poor fit]

Compound: CCC(C)Sc1ccc([C@@H]2[C@H]3C(=O)N(CC)C(=O)[C@H]3[C@]3(C(=O)OC)CCCCN23)cc1 (some centres undefined)
- AC50 [1]: 6.51 µM [falling, partial curve, poor fit]

Compound: CCCNc1ncnc2c1c(-c1ccccc1)cn2-c1ccccc1
- AC50 [1]: 12.6 µM [rising, single point]

Compound: O=C(OCC1O[C@@H](OC(=O)c2cc(O)c(O)c(O)c2)[C@@H](OC(=O)c2cc(O)c(O)c(O)c2)[C@@H](OC(=O)c2cc(O)c(O)c(O)c2)[C@@H]1OC(=O)c1cc(O)c(O)c(O)c1)c1cc(O)c(O)c(O)c1 (some centres undefined)
- AC50 [1]: 29.1 µM [rising, single point]
- AC50 [2]: 20.6 µM [falling, partial curve, poor fit]

Compound: C=C(Cl)COc1ccc2c(CCC)cc(=O)oc2c1
- AC50 [1]: 10.3 µM [rising, partial curve, poor fit]

Compound: COC(=O)C1=C(CCc2ccccc2)NC(=O)NC1c1ccc(Br)cc1 (centres undefined)
- AC50 [1]: 22.4 µM [falling, single point]
- AC50 [2]: 12.6 µM [rising, partial curve, poor fit]

Compound: CCCCCCN1CC(O)=C(c2ccccc2)C1=N
- AC50 [1]: 5.17 µM [rising, partial curve, poor fit]

Compound: CC1CCN(C(=O)c2ccc(NC(=O)c3cccs3)cc2)CC1
- AC50 [1]: 0.794 µM [rising, full curve, poor fit]

Compound: CC(NC(=O)c1noc2c1CCCCC2)c1ccccc1 (centres undefined)
- AC50 [1]: 0.651 µM [rising, partial curve]

Compound: Cc1ccc(-n2c(-c3ccc(Cl)cc3)n[nH]c2=S)c(C)c1
- AC50 [1]: 15.8 µM [rising, single point]

Reference: PubChem BioAssay AID493014 (National Center for Advancing Translational Sciences (NCATS), 2011)
